For assay [1], the target named is T1, endogenous ZBED4 of Y79 retinoblastoma cells (human (endogenous in Y79)) (UniProt O75132).
T1 sequence: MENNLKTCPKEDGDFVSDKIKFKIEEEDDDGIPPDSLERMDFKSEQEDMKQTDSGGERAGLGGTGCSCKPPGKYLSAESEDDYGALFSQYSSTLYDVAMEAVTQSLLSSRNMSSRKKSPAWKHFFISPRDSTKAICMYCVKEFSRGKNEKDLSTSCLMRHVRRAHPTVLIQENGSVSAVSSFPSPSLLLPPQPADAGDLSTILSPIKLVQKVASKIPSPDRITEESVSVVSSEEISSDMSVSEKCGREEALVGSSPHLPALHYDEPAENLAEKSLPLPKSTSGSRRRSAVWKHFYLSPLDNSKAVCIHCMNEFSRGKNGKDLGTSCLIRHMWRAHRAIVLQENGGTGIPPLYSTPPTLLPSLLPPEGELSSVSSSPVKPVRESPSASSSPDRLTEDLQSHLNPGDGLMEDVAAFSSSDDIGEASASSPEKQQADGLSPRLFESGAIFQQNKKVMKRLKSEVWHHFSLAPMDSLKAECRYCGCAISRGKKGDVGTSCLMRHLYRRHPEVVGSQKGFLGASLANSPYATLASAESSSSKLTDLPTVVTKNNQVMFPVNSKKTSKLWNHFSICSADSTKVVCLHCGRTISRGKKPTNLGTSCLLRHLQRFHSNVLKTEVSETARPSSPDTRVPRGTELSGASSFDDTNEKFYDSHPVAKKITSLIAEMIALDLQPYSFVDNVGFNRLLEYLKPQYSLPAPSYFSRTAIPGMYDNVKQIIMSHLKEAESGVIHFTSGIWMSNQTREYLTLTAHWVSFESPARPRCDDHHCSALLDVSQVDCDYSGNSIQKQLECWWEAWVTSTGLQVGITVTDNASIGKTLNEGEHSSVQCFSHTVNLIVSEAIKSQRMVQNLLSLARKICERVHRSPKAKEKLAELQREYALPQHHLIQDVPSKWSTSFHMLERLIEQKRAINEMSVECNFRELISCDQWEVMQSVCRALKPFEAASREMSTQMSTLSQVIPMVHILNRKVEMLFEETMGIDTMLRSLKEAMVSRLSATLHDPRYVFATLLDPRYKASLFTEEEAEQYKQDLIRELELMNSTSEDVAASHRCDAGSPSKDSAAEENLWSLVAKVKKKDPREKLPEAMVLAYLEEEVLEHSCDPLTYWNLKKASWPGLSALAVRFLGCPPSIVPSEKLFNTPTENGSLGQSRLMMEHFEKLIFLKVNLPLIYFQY
Nature of the assay: co-IP; Y79 retinoblastoma cell (nuclear) extracts; immunoprecipitation with Zbed4, SAFB1 or MYH9 antibodies; Western blot with the partner's antibody; endogenous proteins. Background: In western blotting, separated proteins are transferred to a membrane and probed.

By UniProt entry, the sequences of proteins in these tests, tags left out.
UniProt P35579: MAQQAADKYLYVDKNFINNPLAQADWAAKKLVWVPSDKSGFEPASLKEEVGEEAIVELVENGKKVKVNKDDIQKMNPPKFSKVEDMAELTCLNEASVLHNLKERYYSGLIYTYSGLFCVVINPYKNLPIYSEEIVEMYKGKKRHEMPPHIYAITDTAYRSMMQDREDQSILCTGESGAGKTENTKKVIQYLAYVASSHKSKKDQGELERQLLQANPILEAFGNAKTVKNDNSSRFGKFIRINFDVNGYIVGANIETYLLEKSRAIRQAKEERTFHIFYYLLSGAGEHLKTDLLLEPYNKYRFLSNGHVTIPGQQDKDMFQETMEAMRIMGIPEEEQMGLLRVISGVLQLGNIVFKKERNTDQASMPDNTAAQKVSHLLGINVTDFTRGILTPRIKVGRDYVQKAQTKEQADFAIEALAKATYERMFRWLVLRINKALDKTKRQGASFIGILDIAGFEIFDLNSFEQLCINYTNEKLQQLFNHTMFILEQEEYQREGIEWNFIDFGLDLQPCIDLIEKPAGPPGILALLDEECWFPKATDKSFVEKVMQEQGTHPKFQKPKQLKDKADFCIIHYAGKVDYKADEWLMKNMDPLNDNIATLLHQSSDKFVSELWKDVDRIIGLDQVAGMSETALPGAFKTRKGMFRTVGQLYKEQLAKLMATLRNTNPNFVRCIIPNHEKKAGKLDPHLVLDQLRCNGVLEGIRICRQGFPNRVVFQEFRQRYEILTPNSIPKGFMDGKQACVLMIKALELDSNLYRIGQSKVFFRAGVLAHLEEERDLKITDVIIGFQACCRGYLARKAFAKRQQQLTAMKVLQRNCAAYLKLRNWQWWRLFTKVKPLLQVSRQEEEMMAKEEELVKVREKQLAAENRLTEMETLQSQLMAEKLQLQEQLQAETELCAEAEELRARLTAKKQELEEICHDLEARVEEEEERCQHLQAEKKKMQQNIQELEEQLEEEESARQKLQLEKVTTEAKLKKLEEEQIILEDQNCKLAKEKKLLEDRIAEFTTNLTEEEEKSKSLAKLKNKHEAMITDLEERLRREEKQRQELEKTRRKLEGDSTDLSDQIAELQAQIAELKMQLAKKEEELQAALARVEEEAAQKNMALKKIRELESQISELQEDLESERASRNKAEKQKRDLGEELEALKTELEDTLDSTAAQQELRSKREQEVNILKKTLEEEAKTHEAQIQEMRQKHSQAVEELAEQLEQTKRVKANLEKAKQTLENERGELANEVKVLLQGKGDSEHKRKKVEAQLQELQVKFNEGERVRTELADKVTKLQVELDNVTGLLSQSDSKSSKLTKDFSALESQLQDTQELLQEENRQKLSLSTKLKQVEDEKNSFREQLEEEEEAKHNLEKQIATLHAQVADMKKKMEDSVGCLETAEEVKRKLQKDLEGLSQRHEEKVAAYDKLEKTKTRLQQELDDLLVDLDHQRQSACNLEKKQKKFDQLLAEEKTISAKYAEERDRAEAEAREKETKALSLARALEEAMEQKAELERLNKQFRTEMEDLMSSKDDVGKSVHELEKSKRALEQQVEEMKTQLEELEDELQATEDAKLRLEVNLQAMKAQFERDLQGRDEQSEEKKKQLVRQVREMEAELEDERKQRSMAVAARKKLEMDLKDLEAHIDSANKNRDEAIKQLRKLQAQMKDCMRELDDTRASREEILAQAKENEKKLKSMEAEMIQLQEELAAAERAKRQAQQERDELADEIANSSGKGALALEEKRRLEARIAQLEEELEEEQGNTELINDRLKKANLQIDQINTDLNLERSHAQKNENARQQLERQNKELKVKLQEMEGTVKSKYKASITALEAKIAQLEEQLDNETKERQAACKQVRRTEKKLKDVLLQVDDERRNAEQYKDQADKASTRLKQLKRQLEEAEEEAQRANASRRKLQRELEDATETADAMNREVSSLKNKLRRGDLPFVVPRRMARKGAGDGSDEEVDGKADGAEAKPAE
UniProt Q15424: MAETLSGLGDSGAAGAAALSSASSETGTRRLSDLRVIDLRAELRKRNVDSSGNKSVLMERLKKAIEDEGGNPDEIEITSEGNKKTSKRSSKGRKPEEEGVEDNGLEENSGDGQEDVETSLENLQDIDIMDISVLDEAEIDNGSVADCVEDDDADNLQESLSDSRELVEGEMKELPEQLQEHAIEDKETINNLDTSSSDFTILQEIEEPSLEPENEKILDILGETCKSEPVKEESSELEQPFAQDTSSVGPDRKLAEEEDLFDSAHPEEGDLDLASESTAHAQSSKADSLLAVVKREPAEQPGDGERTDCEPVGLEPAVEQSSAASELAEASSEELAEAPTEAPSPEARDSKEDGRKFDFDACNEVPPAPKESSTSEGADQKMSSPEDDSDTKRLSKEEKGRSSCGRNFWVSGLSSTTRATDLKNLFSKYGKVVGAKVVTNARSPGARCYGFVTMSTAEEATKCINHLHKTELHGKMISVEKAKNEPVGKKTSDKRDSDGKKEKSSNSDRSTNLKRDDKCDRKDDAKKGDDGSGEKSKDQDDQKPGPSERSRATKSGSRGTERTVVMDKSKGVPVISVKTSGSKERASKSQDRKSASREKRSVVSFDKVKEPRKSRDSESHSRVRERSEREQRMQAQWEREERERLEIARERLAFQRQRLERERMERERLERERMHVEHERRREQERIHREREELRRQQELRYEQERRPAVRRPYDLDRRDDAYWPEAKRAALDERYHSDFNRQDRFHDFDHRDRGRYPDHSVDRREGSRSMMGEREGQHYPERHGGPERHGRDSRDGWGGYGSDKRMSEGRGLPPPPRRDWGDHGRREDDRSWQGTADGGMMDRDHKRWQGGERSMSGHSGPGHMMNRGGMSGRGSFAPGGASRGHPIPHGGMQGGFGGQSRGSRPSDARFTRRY
UniProt P03372: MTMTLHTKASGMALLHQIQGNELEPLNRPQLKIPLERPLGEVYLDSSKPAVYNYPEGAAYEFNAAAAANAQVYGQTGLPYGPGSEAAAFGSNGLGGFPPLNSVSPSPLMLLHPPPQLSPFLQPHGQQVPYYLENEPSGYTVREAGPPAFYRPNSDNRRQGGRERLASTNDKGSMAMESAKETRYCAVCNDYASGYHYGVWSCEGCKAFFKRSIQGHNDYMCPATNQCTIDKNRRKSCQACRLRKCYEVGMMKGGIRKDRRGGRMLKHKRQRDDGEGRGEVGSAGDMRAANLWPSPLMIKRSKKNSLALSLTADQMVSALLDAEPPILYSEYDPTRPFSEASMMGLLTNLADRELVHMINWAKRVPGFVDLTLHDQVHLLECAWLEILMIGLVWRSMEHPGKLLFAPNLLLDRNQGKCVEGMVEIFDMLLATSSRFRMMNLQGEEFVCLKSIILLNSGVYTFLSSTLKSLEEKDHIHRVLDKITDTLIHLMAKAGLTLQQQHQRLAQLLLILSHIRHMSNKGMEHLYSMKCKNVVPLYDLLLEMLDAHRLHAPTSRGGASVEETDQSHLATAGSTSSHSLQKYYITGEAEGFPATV

Assay [2] deals with cellular myosin 9 (human (endogenous in Y79)) (UniProt P35579). The description is as above.
For assay [3], the target named is Scaffold Attachment Factor B1 (human (endogenous in Y79)) (UniProt Q15424). The description is as above.
In assay [4] the target is estrogen receptor alpha (human (endogenous in Y79)) (UniProt P03372). Nature of the assay: far-Western, overlay or dot blot; Y79 nuclear extract resolved by SDS-PAGE and transferred to PVDF; overlaid with purified Zbed4 (5-10 ug/ml) for 2 h at 5°C in 10 mM Tris-HCl pH 8, 150 mM NaCl, 0.05% Tween-20; lanes probed with Zbed4, SAFB1 or ERα antibodies; only the binder purified.

Assay [5] addresses Scaffold Attachment Factor B1 (human (endogenous in Y79)) (UniProt Q15424). Described as above.

These are yes or no findings as the source states them, for the method shown. For some assays here: Binding seen in cells or lysates may run through a third protein. Some results given as binding are weak or reduced against the parent protein; the word gives no strength. For some assays here: Where a sequence is shown, tags or fusion partners need not be part of it.

On to “cellular myosin 9 (from UniProt P35579 1-1960)”, for which, in assay [1], the binding result was “binds”.

B1: endogenous ZBED4 of Y79 retinoblastoma cells (protein, UniProt O75132 1-1171)
chain: MENNLKTCPKEDGDFVSDKIKFKIEEEDDDGIPPDSLERMDFKSEQEDMKQTDSGGERAGLGGTGCSCKPPGKYLSAESEDDYGALFSQYSSTLYDVAMEAVTQSLLSSRNMSSRKKSPAWKHFFISPRDSTKAICMYCVKEFSRGKNEKDLSTSCLMRHVRRAHPTVLIQENGSVSAVSSFPSPSLLLPPQPADAGDLSTILSPIKLVQKVASKIPSPDRITEESVSVVSSEEISSDMSVSEKCGREEALVGSSPHLPALHYDEPAENLAEKSLPLPKSTSGSRRRSAVWKHFYLSPLDNSKAVCIHCMNEFSRGKNGKDLGTSCLIRHMWRAHRAIVLQENGGTGIPPLYSTPPTLLPSLLPPEGELSSVSSSPVKPVRESPSASSSPDRLTEDLQSHLNPGDGLMEDVAAFSSSDDIGEASASSPEKQQADGLSPRLFESGAIFQQNKKVMKRLKSEVWHHFSLAPMDSLKAECRYCGCAISRGKKGDVGTSCLMRHLYRRHPEVVGSQKGFLGASLANSPYATLASAESSSSKLTDLPTVVTKNNQVMFPVNSKKTSKLWNHFSICSADSTKVVCLHCGRTISRGKKPTNLGTSCLLRHLQRFHSNVLKTEVSETARPSSPDTRVPRGTELSGASSFDDTNEKFYDSHPVAKKITSLIAEMIALDLQPYSFVDNVGFNRLLEYLKPQYSLPAPSYFSRTAIPGMYDNVKQIIMSHLKEAESGVIHFTSGIWMSNQTREYLTLTAHWVSFESPARPRCDDHHCSALLDVSQVDCDYSGNSIQKQLECWWEAWVTSTGLQVGITVTDNASIGKTLNEGEHSSVQCFSHTVNLIVSEAIKSQRMVQNLLSLARKICERVHRSPKAKEKLAELQREYALPQHHLIQDVPSKWSTSFHMLERLIEQKRAINEMSVECNFRELISCDQWEVMQSVCRALKPFEAASREMSTQMSTLSQVIPMVHILNRKVEMLFEETMGIDTMLRSLKEAMVSRLSATLHDPRYVFATLLDPRYKASLFTEEEAEQYKQDLIRELELMNSTSEDVAASHRCDAGSPSKDSAAEENLWSLVAKVKKKDPREKLPEAMVLAYLEEEVLEHSCDPLTYWNLKKASWPGLSALAVRFLGCPPSIVPSEKLFNTPTENGSLGQSRLMMEHFEKLIFLKVNLPLIYFQY
With B1, the binding entry in assay [2] and in assay [3] was “binds” each time.

B2: recombinant Zbed4 (mouse), His-tagged, refolded (protein, UniProt Q80WQ9 1-1168)
chain: MEDKQETCPKGDSDFVSDKVNFKTEEDDDQTPCHSLEQVDFKSESEDMRQTDSGDEQADIRAASCACQPSGKFLAAESEDDYGSLFSQYSSTLYSVAMEAVTQSLLSSRHISSRKKSPAWKHFFISPRDSTKAICTYCMKEFSRGKNEKDLSTSCLMRHVRRAHPTKLIQENGSLSAGSSFSPPSLLLPPQPADVGDLSTVLSPVRLVQKMAPKIPSPDQIMEESVTVVSSEELSSDVSVTEKYSREEALAGSSPNLSMLHYDDASETMADRNLSLPKSTSGSRRRSAVWKHFYLSPLDSSKAVCVHCMNEFSRGKNGKDLGTSCLIRHMWRAHRSIVLQENGGNTGIPPLYPMPPTLLPALLPPEGDLNSASLSPGKQVKESPSASSSPERLPEDLSSHTNPGDVSREDVSMLSSSDDLGEASVVSSPEKQPADTVNPRFESGTVFQQNKKVMRRLKSEVWHHFSLAPMDSLKAVCRYCSCVISRGKKGDVGTSCLMRHLYRRHPEVVGNQKDFLGASLANSPYATLASAESSSKLTDLPAVVRKNHQGVFPTNSKKTSKLWNHFSICSADSTKVVCLHCGRTISRGKKPTNLGTSCLLRHLQRFHGHVLKNDVSEATLSRSPGIRRPLGIELSGPSSFRDSTEKFYDSHPVAKKITSLIAEMIALDLQPYSLVDNVGFNRLLEYLKPQYSLPSPSYFSRTAIPGMYDNVKQIIMSHLKEAESGVVHFTSGIWMSSQTREYLTLTAHWVTFASAVRPHCEDHHCSALLDVSQIDCDYSGNSIQKQLECWWEAWVTSIGLQIGITVTDNPSIGKMLSEGEHSSVQCFSHTVNLIVSEAIKSQRMVQNLLSIARKLCERVHRSPRAREKLAELQKEYELPQHQLIQDVPSKWSTSFHMLERLIEQKRAVNEVSIECNFRELISCDQWEVMQSVCHVLRPFDAASREMSAHMSTLSQVIPMIHILSRKVEMLFGETMGIDTMLKSLKEAMASRLSATLHDPRYIFATLLDPRYKASLFTEEEAEQYRQDLIRELEILNSTSEDTATSNGCDSGSPLKDTGTEESLWSLAPIKRDQREKLPEDMVLAYLEEEVLEHSCDPLTYWNLKRSSWPGLSTLAVRFLGCPPSTVPSEKLFSTPMDAGSFGQPRLMMEHFEKLIFLKVNLPLICFQY
Consider B2, for which the binding result in assay [4] and in assay [5] was “binds” each time.

For the origin of these results see publication PMC3365051, “Sequence-Specific Binding of Recombinant Zbed4 to DNA: Insights into Zbed4 Participation in Gene Transcription and Its Association with Other Proteins”.
